Measurements reported in PubChem BioAssay AID1259308 (NCATS, 2017).
Aim: 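Candidate targets for better recombinant protein yield in mammalian cells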 (primary screen). Cell system: human HEK293 embryonic kidney cells stably expressing firefly luciferase (HEK-CMV-Luc2-Hygro). Reagent: single siRNA against human genes, 0.8 pmol siRNA per well. Timing: 72 h. Measurement: 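Luciferase light (ONE-Glo) measured on one replicate plate set and viability (CellTiter-Glo) on the other, scaled to a negative control siRNA, with robust z-scores and luciferase per cell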. Scale: total luciferase, z-score and total luciferase, % of control: higher = more reporter protein produced; luciferase per cell, z-score: higher = more reporter output per viable cell; viable cells, % of control: higher = more viable cells. Active means: 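An siRNA counts as active if its total luciferase robust z-score exceeds 3; genes with two or more such siRNAs out of three were retested with fresh siRNAs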. Calls: active = raised luciferase; inactive = no rise.
Here is one part, drawn at random, of about 59,000 reagents. In the full data, about 1,510 (2.6%) were called active. 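Calls use total luciferase alone and ignore viability, so some active siRNAs may act by altering cell number.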 The numbers tell different reagents against one gene apart. No sequences are given here.

gene | reagent | total luciferase, z-score | total luciferase, % of control | luciferase per cell, z-score | viable cells, % of control | outcome
TBX4 (T-box transcription factor 4) | 1 | 1.63 | 114 | 0.866 | 102 | inactive
TBX4 (T-box transcription factor 4) | 2 | 0.88 | 99.4 | 0.601 | 94.8 | inactive
TBX4 (T-box transcription factor 4) | 3 | -0.752 | 66.9 | -1.04 | 98.3 | inactive
SPRTN (SprT-like N-terminal domain) | 1 | -1.24 | 57.3 | -1.06 | 84.6 | inactive
SPRTN (SprT-like N-terminal domain) | 2 | 0.0806 | 83.5 | -0.126 | 96.4 | inactive
SPRTN (SprT-like N-terminal domain) | 3 | 3.45 | 150 | 2.03 | 98.5 | active
NANOS1 (nanos C2HC-type zinc finger 1) | 1 | -0.0362 | 81.2 | -0.18 | 95.1 | inactive
NANOS1 (nanos C2HC-type zinc finger 1) | 2 | 0.44 | 90.6 | -0.251 | 108 | inactive
NANOS1 (nanos C2HC-type zinc finger 1) | 3 | 1.04 | 103 | 0.327 | 105 | inactive
HS3ST5 (heparan sulfate-glucosamine 3-sulfotransferase 5) | 1 | 0.0913 | 83.7 | 0.78 | 76.2 | inactive
HS3ST5 (heparan sulfate-glucosamine 3-sulfotransferase 5) | 2 | 0.67 | 95.2 | 1.99 | 63 | inactive
HS3ST5 (heparan sulfate-glucosamine 3-sulfotransferase 5) | 3 | 0.104 | 84 | -0.106 | 96.5 | inactive
INO80D (INO80 complex subunit D) | 1 | 0.102 | 83.9 | -0.33 | 102 | inactive
INO80D (INO80 complex subunit D) | 2 | 0.00603 | 82 | -0.473 | 104 | inactive
INO80D (INO80 complex subunit D) | 3 | -1.51 | 51.9 | -1.97 | 97.4 | inactive
PRKAG3 (protein kinase AMP-activated non-catalytic subunit gamma 3) | 1 | 0.791 | 97.6 | 0.501 | 95.6 | inactive
PRKAG3 (protein kinase AMP-activated non-catalytic subunit gamma 3) | 2 | -2.94 | 23.5 | -2.31 | 48.3 | inactive
PRKAG3 (protein kinase AMP-activated non-catalytic subunit gamma 3) | 3 | -1.28 | 56.3 | -1.32 | 89.1 | inactive
WDR12 (WD repeat domain 12) | 1 | 1.02 | 102 | 1.84 | 70.4 | inactive
WDR12 (WD repeat domain 12) | 2 | -1.71 | 47.9 | -2.23 | 96.3 | inactive
WDR12 (WD repeat domain 12) | 3 | -0.506 | 71.8 | -0.378 | 88.6 | inactive
ARHGAP19 (Rho GTPase activating protein 19) | 1 | -1.32 | 55.5 | -1.31 | 87.7 | inactive
ARHGAP19 (Rho GTPase activating protein 19) | 2 | -0.75 | 67 | -0.862 | 93.9 | inactive
ARHGAP19 (Rho GTPase activating protein 19) | 3 | 0.00771 | 82 | -0.268 | 98.4 | inactive
SLC38A3 | 1 | 1.09 | 104 | 1.05 | 87.8 | inactive
SLC38A3 | 2 | -0.0838 | 80.2 | -0.0288 | 90.3 | inactive
SLC38A3 | 3 | 0.0301 | 82.5 | -0.44 | 104 | inactive
ADAM21 (ADAM metallopeptidase domain 21) | 1 | -0.025 | 81.4 | -0.286 | 98.1 | inactive
ADAM21 (ADAM metallopeptidase domain 21) | 2 | 0.723 | 96.3 | 0.382 | 97.3 | inactive
ADAM21 (ADAM metallopeptidase domain 21) | 3 | 0.424 | 90.3 | 0.163 | 96.7 | inactive
PABIR2 (PABIR family member 2) | 1 | 6.35 | 208 | 4.37 | 73.7 | active
PABIR2 (PABIR family member 2) | 2 | -0.625 | 69.5 | 0.558 | 67 | inactive
PABIR2 (PABIR family member 2) | 3 | 0.628 | 94.4 | 0.994 | 81.2 | inactive
PIP (prolactin induced protein) | 1 | 0.667 | 95.2 | 0.323 | 97.7 | inactive
PIP (prolactin induced protein) | 2 | 1.79 | 117 | 1.94 | 78.9 | inactive
PIP (prolactin induced protein) | 3 | 0.277 | 87.4 | -0.722 | 118 | inactive
SEC14L3 (SEC14 like lipid binding 3) | 1 | -0.48 | 72.3 | -0.874 | 102 | inactive
SEC14L3 (SEC14 like lipid binding 3) | 2 | -0.781 | 66.4 | -0.732 | 89.9 | inactive
SEC14L3 (SEC14 like lipid binding 3) | 3 | -0.66 | 68.8 | -1.11 | 103 | inactive
H4C4 (H4 clustered histone 4) | 1 | -0.92 | 63.6 | 1.56 | 47.2 | inactive
H4C4 (H4 clustered histone 4) | 2 | 0.34 | 88.6 | 1.08 | 74.6 | inactive
H4C4 (H4 clustered histone 4) | 3 | -0.119 | 79.5 | -0.0933 | 91.1 | inactive
CAMKMT (calmodulin-lysine N-methyltransferase) | 1 | 2.71 | 136 | 1.32 | 107 | inactive
CAMKMT (calmodulin-lysine N-methyltransferase) | 2 | 0.0319 | 82.5 | -0.429 | 103 | inactive
CAMKMT (calmodulin-lysine N-methyltransferase) | 3 | -0.535 | 71.2 | -1.16 | 108 | inactive
SNX18 (sorting nexin 18) | 1 | 1.96 | 121 | 1.82 | 83.6 | inactive
SNX18 (sorting nexin 18) | 2 | -1.3 | 56.1 | -1.83 | 101 | inactive
SNX18 (sorting nexin 18) | 3 | 0.255 | 87 | 0.242 | 91.2 | inactive
RPL9P25 (ribosomal protein L9 pseudogene 25) | 1 | -2.97 | 22.8 | -2.43 | 48.4 | inactive
RPL9P25 (ribosomal protein L9 pseudogene 25) | 2 | 1.92 | 120 | 1.95 | 80.4 | inactive
RPL9P25 (ribosomal protein L9 pseudogene 25) | 3 | -0.387 | 74.2 | -0.42 | 92.6 | inactive
ARLN (allregulin) | 1 | 1.02 | 102 | 1.62 | 74.5 | inactive
ARLN (allregulin) | 2 | -0.642 | 69.1 | -0.341 | 84.5 | inactive
ARLN (allregulin) | 3 | -0.00299 | 81.8 | -0.271 | 98.2 | inactive
MGAM2 (maltase-glucoamylase 2 (putative)) | 1 | 0.188 | 85.6 | -0.274 | 103 | inactive
MGAM2 (maltase-glucoamylase 2 (putative)) | 2 | 0.336 | 88.6 | 0.0995 | 96.4 | inactive
MGAM2 (maltase-glucoamylase 2 (putative)) | 3 | 0.146 | 84.8 | -0.97 | 122 | inactive
